In PMC4947180 one finds binding data, which are given here for 1 substance.

The chains behind the UniProt entries cited, without tags or fusion partners.
UniProt P58854: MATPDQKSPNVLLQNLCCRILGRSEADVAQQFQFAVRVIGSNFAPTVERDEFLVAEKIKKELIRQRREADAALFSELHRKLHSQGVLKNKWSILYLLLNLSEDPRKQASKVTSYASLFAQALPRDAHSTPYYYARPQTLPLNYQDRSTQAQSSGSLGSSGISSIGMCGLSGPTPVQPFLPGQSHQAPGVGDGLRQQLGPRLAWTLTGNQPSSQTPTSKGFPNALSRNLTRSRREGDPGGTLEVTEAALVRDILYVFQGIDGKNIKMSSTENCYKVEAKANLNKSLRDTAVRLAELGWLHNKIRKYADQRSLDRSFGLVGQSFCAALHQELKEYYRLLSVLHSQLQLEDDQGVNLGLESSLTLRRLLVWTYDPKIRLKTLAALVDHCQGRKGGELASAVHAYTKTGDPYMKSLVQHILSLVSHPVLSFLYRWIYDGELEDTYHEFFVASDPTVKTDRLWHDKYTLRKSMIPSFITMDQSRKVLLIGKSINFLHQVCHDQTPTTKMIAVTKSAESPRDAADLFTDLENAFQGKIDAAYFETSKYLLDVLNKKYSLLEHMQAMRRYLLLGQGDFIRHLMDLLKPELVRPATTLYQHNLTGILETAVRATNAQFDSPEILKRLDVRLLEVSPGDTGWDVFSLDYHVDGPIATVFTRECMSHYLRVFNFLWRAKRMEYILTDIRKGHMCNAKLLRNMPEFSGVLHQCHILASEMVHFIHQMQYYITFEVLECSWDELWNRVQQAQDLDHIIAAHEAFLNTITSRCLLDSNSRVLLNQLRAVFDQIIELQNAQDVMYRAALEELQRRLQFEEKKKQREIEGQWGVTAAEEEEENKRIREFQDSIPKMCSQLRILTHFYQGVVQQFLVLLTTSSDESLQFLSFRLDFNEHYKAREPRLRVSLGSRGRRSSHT
UniProt P33215: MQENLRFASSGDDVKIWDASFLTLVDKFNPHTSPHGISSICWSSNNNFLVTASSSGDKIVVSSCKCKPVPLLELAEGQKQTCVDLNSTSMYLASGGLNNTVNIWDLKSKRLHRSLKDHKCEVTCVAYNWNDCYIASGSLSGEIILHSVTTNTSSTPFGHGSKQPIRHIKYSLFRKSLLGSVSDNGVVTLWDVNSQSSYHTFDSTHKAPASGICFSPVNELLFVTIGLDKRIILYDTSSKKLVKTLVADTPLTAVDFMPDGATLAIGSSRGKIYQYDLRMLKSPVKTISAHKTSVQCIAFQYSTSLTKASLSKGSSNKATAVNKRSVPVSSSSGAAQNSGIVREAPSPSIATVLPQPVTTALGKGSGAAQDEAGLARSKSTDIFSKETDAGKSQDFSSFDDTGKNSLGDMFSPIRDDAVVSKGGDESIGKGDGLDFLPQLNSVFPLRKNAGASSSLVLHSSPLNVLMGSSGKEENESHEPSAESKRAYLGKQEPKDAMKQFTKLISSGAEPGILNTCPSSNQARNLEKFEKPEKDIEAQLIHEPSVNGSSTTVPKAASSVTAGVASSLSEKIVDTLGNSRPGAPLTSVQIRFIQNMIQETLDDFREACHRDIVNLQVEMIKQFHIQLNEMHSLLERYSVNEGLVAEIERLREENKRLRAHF

For this test, the target named is γTuRC subunit GCP3 (mouse (endogenous in hippocampal cultures)) (UniProt P58854). Kind of test: co-IP; 3 DIV or 10 DIV hippocampal cultures lysed (50 mM Tris pH 7.4, 150 mM NaCl, 1 mM MgCl2, 1 mM EGTA, 10% glycerol, 1% Triton X-100); immunoprecipitation with anti-GCP3 antibody overnight or control IgG, Protein G-Sepharose; immunoblot. On the technique in general: Immunoblotting shows a protein as a band on a membrane.

Results are given in words; binding and its absence hold for the method and conditions named. In cells and extracts the contact can be indirect. Some entries that bind do so weakly or less than the wild type.

As for “γTuRC targeting subunit NEDD1 (from UniProt P33215 1-660)”, the binding result was “binds”.
